The source of these data is PMC4107866.

By UniProt entry, the sequences of proteins in these tests, tags left out. Residues count along the entry.
UniProt Q15746: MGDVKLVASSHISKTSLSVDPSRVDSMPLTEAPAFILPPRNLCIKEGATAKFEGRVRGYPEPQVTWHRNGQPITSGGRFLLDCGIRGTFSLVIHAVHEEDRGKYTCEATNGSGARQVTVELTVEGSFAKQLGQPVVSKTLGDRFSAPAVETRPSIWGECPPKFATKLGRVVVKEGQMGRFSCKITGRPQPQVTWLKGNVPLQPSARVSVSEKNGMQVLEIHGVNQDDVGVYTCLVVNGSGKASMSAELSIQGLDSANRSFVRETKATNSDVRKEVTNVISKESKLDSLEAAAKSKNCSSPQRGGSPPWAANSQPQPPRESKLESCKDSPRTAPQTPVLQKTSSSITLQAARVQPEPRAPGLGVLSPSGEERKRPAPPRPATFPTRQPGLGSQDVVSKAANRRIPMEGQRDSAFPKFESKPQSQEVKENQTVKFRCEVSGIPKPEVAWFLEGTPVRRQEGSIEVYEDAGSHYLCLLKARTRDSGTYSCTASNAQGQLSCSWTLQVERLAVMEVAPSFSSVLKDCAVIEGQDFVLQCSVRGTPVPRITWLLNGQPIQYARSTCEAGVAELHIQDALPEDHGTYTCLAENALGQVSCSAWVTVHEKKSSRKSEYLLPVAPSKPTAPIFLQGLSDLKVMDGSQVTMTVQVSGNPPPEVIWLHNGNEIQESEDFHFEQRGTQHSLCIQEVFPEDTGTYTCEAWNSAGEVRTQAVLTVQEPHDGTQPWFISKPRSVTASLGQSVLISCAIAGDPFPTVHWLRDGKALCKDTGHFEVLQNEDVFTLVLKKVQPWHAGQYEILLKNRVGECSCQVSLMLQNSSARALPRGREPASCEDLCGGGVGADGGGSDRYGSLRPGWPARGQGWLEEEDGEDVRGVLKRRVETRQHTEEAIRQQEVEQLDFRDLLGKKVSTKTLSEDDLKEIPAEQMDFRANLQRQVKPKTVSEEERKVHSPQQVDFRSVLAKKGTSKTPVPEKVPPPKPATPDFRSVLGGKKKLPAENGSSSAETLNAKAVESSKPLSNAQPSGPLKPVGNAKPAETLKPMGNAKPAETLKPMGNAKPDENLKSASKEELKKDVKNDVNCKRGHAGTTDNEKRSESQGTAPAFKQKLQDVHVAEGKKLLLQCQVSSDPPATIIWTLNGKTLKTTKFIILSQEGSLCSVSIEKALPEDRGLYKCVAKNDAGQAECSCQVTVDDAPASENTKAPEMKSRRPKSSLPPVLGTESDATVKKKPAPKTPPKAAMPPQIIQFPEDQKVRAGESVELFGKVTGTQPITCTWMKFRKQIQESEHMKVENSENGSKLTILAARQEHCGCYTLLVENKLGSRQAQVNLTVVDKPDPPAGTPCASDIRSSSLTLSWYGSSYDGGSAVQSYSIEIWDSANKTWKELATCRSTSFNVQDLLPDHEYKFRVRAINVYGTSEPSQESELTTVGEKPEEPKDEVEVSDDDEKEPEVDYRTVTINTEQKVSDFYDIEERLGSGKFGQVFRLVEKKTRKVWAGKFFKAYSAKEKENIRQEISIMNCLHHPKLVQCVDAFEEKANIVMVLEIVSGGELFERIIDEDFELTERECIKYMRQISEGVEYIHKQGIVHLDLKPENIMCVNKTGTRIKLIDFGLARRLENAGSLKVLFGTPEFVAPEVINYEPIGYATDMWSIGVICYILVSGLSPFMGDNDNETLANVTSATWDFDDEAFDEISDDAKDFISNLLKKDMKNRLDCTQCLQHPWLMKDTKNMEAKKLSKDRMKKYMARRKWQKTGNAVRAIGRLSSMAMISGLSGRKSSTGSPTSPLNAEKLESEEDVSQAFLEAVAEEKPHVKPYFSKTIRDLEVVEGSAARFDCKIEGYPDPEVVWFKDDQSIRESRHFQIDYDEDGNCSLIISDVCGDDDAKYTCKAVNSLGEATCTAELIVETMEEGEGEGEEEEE
UniProt O60449, residues 28-1722: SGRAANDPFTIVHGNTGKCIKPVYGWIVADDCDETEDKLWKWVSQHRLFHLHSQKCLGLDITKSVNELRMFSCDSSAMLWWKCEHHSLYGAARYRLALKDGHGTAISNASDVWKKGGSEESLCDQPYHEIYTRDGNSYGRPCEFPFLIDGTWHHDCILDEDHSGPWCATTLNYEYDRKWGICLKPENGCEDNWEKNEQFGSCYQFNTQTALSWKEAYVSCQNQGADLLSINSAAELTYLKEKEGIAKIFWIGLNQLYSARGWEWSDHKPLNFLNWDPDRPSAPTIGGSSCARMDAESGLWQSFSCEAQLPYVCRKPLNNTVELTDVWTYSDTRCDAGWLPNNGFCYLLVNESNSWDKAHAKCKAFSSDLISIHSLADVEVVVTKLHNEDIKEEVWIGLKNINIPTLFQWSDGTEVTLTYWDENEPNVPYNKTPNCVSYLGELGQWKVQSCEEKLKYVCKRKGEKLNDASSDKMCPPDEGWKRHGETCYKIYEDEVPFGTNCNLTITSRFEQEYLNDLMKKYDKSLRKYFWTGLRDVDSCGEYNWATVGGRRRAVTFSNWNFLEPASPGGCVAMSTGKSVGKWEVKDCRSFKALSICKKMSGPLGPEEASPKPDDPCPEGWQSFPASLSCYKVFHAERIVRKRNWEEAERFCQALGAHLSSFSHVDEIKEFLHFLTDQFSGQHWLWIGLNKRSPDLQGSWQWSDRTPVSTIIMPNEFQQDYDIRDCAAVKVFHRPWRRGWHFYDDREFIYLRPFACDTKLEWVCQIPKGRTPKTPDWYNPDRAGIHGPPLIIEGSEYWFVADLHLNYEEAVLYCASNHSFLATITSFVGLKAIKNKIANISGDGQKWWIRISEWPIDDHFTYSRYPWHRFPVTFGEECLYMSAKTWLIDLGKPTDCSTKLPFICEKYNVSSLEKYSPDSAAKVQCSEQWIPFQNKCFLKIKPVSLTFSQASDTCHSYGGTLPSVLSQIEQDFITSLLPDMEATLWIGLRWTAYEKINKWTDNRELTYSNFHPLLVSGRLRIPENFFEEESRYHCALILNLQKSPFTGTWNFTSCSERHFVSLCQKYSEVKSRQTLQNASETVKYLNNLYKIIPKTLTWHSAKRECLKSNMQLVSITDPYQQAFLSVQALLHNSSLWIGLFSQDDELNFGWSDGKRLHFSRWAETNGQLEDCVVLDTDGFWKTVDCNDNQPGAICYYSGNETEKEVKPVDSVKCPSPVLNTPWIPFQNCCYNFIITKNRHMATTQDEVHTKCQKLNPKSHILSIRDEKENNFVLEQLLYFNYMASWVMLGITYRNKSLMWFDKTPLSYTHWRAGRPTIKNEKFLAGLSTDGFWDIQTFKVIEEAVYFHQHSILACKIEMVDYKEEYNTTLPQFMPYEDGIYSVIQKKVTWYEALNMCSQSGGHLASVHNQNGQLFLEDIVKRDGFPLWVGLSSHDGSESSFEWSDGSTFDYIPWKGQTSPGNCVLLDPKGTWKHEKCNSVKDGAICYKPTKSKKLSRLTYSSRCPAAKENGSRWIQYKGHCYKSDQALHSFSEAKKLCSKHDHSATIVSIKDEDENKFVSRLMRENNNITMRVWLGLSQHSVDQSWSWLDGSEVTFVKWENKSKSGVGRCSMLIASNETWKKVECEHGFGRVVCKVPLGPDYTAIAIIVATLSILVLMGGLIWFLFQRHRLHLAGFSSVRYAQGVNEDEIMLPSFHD
UniProt O75449: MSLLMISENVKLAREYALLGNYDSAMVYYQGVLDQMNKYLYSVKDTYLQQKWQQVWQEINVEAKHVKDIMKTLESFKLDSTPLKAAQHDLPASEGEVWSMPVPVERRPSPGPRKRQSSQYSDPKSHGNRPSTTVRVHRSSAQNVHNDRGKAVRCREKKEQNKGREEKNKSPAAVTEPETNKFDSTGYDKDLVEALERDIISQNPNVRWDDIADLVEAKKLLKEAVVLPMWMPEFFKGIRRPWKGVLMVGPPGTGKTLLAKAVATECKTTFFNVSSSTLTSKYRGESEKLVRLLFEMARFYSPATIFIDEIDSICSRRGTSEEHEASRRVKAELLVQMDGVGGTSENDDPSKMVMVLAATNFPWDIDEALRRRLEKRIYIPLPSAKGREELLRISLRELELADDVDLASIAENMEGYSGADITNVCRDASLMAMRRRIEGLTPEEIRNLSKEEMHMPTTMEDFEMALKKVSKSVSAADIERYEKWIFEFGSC

The target of the experiment is 3XFLAG-TEV-CBP-Cul3 (human) (UniProt Q13618). The experiment is described as follows: affinity purification with mass spectrometry; tandem affinity purification of 3XFLAG-TEV-CBP-Cul3 from lysate of transfected HEK293 cells (RIPA buffer): anti-FLAG M2 beads, TEV cleavage, calmodulin beads, elution with EGTA; MudPIT LC/MS-MS; proteins also found with 3XFLAG-TEV-CBP-actin removed.

Results are given in words; binding and its absence hold for the method and conditions named. In cells and extracts the contact can be indirect. Here binding means that the protein was enriched with, or labelled near, the bait; the list need not be complete.

For “Long myosin light chain kinase (from UniProt Q15746 1-1914) (enzyme)”, the binding result is reported as “binds”. As for Nesprin-1 (from UniProt Q8NF91 1-8797), the binding result is reported as “binds”. In the case of “Lymphocyte antigen 75 (from UniProt O60449-1 28-1722)”, the binding entry is “binds”. p60/katanin (from UniProt O75449 1-491): the binding result was “binds”. For the substance “Endothelial differentiation, sphingolipid G-protein-coupled receptor, 1 (from UniProt P21453 1-382)”, the binding entry is given as “binds”.

As for “Rb1-inducible coiled coil protein 1 (from UniProt Q8TDY2-1 1-1594)”, the binding result was “binds”. For Nedd8 (from UniProt Q15843 1-76), the binding entry is listed as “binds”. As to “Thyroid hormone receptor interactor 11 (from UniProt Q15643-1 1-1979)”, the binding result is “binds”.
